Reference: paper PMC10397244
These are yes or no findings as the source states them, for the method shown. Binding seen in cells or lysates may run through a third protein. Some entries that bind do so weakly or less than the wild type. Sequences can lack the tags named with a protein.

T1: BIK1-FLAG (Arabidopsis thaliana) (UniProt O48814)
T1 sequence: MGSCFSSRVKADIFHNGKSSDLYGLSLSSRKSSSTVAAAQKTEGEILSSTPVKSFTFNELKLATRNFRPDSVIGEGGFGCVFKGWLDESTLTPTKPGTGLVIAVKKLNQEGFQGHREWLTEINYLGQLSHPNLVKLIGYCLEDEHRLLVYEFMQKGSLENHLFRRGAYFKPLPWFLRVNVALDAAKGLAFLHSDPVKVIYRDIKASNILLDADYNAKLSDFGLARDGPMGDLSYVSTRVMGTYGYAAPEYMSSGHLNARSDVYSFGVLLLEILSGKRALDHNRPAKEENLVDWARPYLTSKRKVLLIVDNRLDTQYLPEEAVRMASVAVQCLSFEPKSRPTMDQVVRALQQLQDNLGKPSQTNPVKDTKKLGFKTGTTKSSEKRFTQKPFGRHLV

T2: PUB25-FLAG (Arabidopsis thaliana) (UniProt Q9LT79)
T2 sequence: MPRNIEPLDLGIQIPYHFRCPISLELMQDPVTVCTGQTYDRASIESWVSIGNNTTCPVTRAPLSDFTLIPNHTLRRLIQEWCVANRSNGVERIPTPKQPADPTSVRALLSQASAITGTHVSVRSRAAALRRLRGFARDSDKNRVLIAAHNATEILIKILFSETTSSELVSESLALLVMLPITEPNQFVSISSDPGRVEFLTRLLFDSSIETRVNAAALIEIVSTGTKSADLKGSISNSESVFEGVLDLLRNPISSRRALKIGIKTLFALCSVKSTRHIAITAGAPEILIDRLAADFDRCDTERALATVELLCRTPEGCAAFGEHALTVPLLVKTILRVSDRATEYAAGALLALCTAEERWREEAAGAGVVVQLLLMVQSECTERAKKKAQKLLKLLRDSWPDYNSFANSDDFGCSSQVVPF

T3: BAK1-FLAG (Arabidopsis thaliana) (UniProt Q94F62)
T3 sequence: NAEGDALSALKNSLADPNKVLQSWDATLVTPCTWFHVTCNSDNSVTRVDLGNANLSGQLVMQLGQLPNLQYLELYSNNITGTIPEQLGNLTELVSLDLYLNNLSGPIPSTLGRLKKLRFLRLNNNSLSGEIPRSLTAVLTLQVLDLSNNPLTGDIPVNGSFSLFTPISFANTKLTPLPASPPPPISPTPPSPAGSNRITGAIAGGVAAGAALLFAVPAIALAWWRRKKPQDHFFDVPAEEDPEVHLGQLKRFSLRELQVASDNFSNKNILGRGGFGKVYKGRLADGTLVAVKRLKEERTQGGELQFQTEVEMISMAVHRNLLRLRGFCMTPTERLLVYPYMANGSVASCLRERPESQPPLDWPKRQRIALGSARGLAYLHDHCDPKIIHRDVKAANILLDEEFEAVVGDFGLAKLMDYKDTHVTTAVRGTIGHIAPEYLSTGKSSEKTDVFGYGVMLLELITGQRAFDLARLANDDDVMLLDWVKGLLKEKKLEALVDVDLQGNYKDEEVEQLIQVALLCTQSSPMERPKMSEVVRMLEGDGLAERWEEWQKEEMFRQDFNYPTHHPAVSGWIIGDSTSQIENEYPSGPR

T4: BIK1-NLuc (Arabidopsis thaliana) (UniProt O48814)
T4 sequence: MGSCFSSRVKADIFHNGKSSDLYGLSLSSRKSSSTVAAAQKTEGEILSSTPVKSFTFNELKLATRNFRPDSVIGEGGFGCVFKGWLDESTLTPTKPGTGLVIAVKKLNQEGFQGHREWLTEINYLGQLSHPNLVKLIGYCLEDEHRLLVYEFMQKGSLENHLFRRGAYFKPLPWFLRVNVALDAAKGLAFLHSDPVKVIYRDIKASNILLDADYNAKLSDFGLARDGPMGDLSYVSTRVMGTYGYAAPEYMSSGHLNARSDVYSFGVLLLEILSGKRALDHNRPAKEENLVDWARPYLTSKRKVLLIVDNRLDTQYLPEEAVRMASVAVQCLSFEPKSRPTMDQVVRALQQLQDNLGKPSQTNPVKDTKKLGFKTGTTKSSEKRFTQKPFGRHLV


Columns and labels:
[1] = target: T1, BIK1-FLAG (Arabidopsis thaliana); assay: co-IP; stable transgenic Arabidopsis seedlings, with or without 5 uM flg22 for 30 min; BIK1-FLAG immunoprecipitated with anti-FLAG
[2] = target: T2, PUB25-FLAG (Arabidopsis thaliana); assay: co-IP; Arabidopsis protoplasts co-transfected with pHBT plasmids, 10 h; with or without 2.5 uM flg22 for 30 min (some with MG132; Col-0, bak1 or rglg1 rglg2 protoplasts); IP with anti-FLAG antibodies and protein G agarose, 4 C; 10 mM HEPES pH 7.5, 100 mM NaCl, 0.5% Triton X-100
[3] = target: T3, BAK1-FLAG (Arabidopsis thaliana); assay: as above
[4] = target: T1, BIK1-FLAG (Arabidopsis thaliana); assay: as above
[5] = target: T4, BIK1-NLuc (Arabidopsis thaliana); assay: split reporter; split-luciferase complementation; CLuc and NLuc fusions co-infiltrated into N. benthamiana leaves, luminescence two days later; with or without 5 uM flg22 for 30 min

binding [1]	binding [2]	binding [3]	binding [4]	binding [5]	Binder
binds	binds	binds	binds	–	RGLG1-HA (protein, UniProt Q9SS90 1-489) MGGGNSKEESSSPSSSSWASHQSYPQYGPDSYNYPPPPTYAPAPSPAPAPAPVPAPSPASSYGPQYSQEGYASQPNNPPPPTYAPAPSPASSYGHQYSQEGYASAASQPNYPPPPSQSQVADRKKFDRRYSKISDNYSSLLQVSEALGRAGLESSNLIVGIDFTKSNEWTGAKSFNRKSLHHLSNTPNPYEQAITIIGRTLAAFDEDNLIPCYGFGDASTHDQDVFSFYPEGRFCNGFEEVLARYREIVPQLKLAGPTSFAPIIEMAMTVVEQSSGQYHVLVIIADGQVTRSVDTEHGRLSPQEQKTVDAIVKASTLPLSIVLVGVGDGPWDMMQEFDDNIPARAFDNFQFVNFTEIMSKNKDQSRKETEFALSALMEIPPQYKATIELNLLGVRNGNIPQRIPLPPPVQSGSSFSSSRIPNFEPSVPPYPFESKQMSSADDIQLCPICLSNPKNMAFGCGHQTCCECGPDLKVCPICRAPIQTRIKLY
–	–	–	–	binds	RGLG1-CLuc (protein, UniProt Q9SS90 1-489) MGGGNSKEESSSPSSSSWASHQSYPQYGPDSYNYPPPPTYAPAPSPAPAPAPVPAPSPASSYGPQYSQEGYASQPNNPPPPTYAPAPSPASSYGHQYSQEGYASAASQPNYPPPPSQSQVADRKKFDRRYSKISDNYSSLLQVSEALGRAGLESSNLIVGIDFTKSNEWTGAKSFNRKSLHHLSNTPNPYEQAITIIGRTLAAFDEDNLIPCYGFGDASTHDQDVFSFYPEGRFCNGFEEVLARYREIVPQLKLAGPTSFAPIIEMAMTVVEQSSGQYHVLVIIADGQVTRSVDTEHGRLSPQEQKTVDAIVKASTLPLSIVLVGVGDGPWDMMQEFDDNIPARAFDNFQFVNFTEIMSKNKDQSRKETEFALSALMEIPPQYKATIELNLLGVRNGNIPQRIPLPPPVQSGSSFSSSRIPNFEPSVPPYPFESKQMSSADDIQLCPICLSNPKNMAFGCGHQTCCECGPDLKVCPICRAPIQTRIKLY
